The subject of data set [1] is T1, HcdR2 (LuxR family regulator) (Streptomyces mobaraensis US-43).
T1 sequence (looked up): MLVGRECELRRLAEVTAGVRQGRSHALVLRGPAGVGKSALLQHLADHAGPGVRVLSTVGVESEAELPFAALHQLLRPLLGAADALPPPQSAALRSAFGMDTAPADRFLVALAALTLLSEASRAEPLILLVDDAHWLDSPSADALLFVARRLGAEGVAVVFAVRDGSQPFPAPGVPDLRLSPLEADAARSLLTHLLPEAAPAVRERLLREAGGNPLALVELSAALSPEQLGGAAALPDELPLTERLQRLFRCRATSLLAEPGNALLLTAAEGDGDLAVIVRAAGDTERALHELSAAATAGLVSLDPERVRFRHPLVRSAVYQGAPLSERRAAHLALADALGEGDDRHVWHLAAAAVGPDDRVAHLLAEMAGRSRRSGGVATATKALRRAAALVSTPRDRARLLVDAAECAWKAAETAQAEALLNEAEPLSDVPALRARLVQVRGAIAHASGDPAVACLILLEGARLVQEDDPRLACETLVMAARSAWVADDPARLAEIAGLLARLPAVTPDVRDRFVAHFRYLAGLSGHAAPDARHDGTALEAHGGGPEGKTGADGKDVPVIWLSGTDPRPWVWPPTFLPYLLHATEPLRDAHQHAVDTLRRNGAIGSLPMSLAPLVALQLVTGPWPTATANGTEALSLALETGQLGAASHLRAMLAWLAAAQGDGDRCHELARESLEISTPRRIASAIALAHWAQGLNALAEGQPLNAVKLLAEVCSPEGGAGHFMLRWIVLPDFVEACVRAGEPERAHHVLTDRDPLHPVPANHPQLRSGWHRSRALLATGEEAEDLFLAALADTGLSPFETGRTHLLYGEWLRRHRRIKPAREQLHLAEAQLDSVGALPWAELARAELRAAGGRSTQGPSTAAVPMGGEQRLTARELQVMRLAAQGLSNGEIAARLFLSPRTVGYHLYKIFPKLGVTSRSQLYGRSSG
As to the kind of experiment: EMSA. Particulars: shift decreased by 200-fold unlabeled specific competitor; EMSA: 10 mM Tris-HCl, 50 mM KCl, 1 mM DTT, pH 7.5 (1x of 10x buffer), 20 fmol probe in 20 uL, 25-2000 nM protein, room temperature 20 min; native 5% gel, 0.5x TBE, 4 C; recombinant protein; residues 1-930; protein details: N-terminal His10 (pET-16b); label: 5' biotin; probe letters rebuilt from the primers and the genome. Background: In EMSA bound probe runs differently from free probe, usually more slowly.

The test system is the same in data set [2]. In words: competition with a labelled probe. Particulars: 200-fold excess unlabeled vs biotin hcdT-2p, 400 nM HcdR2; EMSA: 10 mM Tris-HCl, 50 mM KCl, 1 mM DTT, pH 7.5 (1x of 10x buffer), 20 fmol probe in 20 uL, 25-2000 nM protein, room temperature 20 min; native 5% gel, 0.5x TBE, 4 C; recombinant protein; residues 1-930; protein details: N-terminal His10 (pET-16b); label: none (unlabeled competitor); probe letters rebuilt from the primers and the genome.

Tags and fusion partners may be left off the protein sequences shown.

These results are taken from article PMC6794829.

As to “CGATGCTCCTTTCCCTGGGCGCACTCTGTCATATGACAGATACATTCACTGATCAATCCGCTCTTATCCGGCCAGGATTGACGCACTTCCTCCGGTTACCTGATCGCCGGCCCCCGTCGAGCGACAGATGCCCGACCGTCCGGGGCTGCCGGAAGGTTGCTGTCGCGGCAGGCCCCCAGAGGCGGCACCACGCTCGGGGCACCGCCGCCACAGGACCGTTCTCACGAGGAATGCACGCCTGGCGTGGGTGGATATATGTCGTTGTCTGATGTTGCTTCGAGTCGCGTGTCCGCCGGCGAGGGA (double strand) [hcdR2-Bp]”, the binding result in data set [1] is on record as “binds”.
The same measure, in the same setting: for “GCGCCGTCGCGCATCGTCAAGCCGTGGGCTACGGTAATACGAGCGAAGCTCGCGCGCCGGATGCCGAAGCGCGGGCCCGCAGACGCCCATCCGCAGGTGACGACACGAGCATCGCGCCGCATCGAGCCGGCCGTGAACCGCGACTCCGTTGCTTTCCCCCTTACTTCCGGACCGGATGGGCCACCTCTGCCCCGCCGCGTGGGCACGGCCCGACTCACCACTGTGGACAGCTCGTTCTTGAGGACTCGGGGGTGGGTGACGATCGCGACCGACCGGCCGCTCGACGGGGCCCGCTCCGAGCAACCGGCAGCGTGGAGCCGCCGTGCGGTGTCCGCTTCCTCCTGTGACGTCGAGCCGATCACCATTCCTCGTGCGTGCGGCAGACAGTGCTGCTGCGACGGCGCCTCCTTCTGAGGTTGCCCGGCTCCCACTGTCCGCGTCCGCGCCTCGAAGGAACTTCCATGGCATCCACAGTG (double strand) [hcdT-2p]” the value was “binds”.
As for “CATGAAGGCCGGCACTTTGGCCTGGGCGGACGCGGACCGGCGGGACTCCTGAGGGGCGCGAGCTGCGTAGGGGCTCATAGGGGTTGTAGGGGATGAAGTTCATCCTCCCCTCTTCGTAGGATGGCTTTGCCCGAGGGAACACGGAAAGGCGGCGTACCGGAAGCCGCGAACCACCAGGGGCGGCGGATTCTCCGAATTCGCCCGTCCGTCATGTGTTCCGCCCTCGGCTTCGCACTGTCCTGGAAGGGGACACGAGGAGCGAATCTCTGCCAGCGCTGAGGGCCCAGGGAGGTCTTGTATGCCGGTCGGTGTCTTAGGGGTTGGAT (double strand) [her3p]”, in data set [2], the binding result is “binds”.
